Binding data for one substance are collected here from article doi:10.1101/448084.

By UniProt entry, the sequences of proteins in these tests, tags left out. Where a name states a change or a piece, a line headed by the entry shows the natural chain unless it says otherwise.
UniProt Q0WNJ6: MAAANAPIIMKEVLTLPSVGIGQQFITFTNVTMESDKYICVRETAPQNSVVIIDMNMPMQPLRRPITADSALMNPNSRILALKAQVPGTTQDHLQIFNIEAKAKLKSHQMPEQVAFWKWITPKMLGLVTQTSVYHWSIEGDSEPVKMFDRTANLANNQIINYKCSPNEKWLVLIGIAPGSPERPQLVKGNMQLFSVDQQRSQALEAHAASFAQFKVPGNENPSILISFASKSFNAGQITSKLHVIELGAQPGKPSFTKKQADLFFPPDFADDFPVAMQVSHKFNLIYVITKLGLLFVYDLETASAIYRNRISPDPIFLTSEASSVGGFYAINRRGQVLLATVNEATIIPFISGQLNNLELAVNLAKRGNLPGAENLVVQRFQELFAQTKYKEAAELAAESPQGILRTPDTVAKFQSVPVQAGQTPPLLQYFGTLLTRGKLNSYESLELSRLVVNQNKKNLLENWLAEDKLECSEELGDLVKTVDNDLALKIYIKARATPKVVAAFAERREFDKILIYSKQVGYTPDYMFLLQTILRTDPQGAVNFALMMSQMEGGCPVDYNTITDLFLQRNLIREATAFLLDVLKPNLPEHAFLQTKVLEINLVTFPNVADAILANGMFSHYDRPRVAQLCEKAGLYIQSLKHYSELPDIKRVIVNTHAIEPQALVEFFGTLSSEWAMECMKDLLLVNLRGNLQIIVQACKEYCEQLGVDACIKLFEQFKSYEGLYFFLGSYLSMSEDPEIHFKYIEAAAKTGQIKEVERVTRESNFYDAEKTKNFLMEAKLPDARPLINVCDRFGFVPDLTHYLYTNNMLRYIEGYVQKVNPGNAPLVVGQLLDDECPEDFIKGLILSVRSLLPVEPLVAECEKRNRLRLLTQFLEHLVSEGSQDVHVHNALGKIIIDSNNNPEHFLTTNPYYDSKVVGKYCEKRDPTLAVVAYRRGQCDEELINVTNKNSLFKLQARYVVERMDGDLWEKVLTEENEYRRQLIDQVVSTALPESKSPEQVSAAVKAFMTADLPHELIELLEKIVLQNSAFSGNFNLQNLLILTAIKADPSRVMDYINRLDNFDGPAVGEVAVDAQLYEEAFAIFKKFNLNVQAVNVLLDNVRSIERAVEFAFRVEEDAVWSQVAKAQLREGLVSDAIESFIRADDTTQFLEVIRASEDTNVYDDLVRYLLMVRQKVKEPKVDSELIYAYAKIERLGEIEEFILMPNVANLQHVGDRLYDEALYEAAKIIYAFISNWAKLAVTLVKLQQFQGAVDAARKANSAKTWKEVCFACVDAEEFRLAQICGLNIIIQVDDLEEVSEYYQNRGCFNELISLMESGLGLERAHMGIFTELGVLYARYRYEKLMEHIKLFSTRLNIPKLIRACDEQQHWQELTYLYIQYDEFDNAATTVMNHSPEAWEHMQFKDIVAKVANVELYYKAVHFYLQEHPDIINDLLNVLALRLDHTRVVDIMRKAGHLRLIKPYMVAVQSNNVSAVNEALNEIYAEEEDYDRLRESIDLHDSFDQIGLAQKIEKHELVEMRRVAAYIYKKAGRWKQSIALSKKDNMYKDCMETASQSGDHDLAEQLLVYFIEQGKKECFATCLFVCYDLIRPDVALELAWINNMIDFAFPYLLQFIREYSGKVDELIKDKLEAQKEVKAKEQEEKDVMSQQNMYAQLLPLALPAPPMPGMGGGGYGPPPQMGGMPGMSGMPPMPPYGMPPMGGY

Results are given in words; binding and its absence hold for the method and conditions named. In cells and extracts the contact can be indirect. A result given as binding can be weak or reduced; the word gives no strength. Tags and fused reporters may be left off the sequences shown.

The assay deals with T1, STRUBBELIG (SUB) fused to EGFP (SUB:EGFP), expressed from pUBQ::SUB:EGFP (Arabidopsis thaliana) (UniProt Q8RWZ1).
T1 sequence: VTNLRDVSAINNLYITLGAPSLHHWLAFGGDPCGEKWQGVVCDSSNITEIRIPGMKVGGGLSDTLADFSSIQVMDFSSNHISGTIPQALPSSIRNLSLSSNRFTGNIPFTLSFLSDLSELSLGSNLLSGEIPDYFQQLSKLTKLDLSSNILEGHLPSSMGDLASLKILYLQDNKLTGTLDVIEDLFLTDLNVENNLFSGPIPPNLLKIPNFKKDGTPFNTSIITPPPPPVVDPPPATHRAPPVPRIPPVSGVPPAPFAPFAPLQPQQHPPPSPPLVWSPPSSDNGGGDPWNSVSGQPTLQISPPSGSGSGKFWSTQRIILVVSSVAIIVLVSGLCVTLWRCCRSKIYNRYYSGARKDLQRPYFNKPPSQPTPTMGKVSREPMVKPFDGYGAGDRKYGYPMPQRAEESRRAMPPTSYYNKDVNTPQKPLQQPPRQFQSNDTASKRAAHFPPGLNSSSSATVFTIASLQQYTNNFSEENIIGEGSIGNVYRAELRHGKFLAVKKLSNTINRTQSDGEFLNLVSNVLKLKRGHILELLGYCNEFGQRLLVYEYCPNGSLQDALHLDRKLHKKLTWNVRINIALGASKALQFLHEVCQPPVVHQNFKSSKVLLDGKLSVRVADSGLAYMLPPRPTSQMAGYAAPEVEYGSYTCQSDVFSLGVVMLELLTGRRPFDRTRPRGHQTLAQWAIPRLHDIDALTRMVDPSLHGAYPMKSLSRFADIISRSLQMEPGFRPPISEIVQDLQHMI
Nature of the assay: co-IP.

With “clathrin heavy chain (CHC), endogenous (from UniProt Q0WNJ6)”, the binding result is listed as “binds”.
